# Primary screen of a compound library

The chains behind the UniProt entries cited, without tags or fusion partners.
UniProt E9BF75, entry or part of it: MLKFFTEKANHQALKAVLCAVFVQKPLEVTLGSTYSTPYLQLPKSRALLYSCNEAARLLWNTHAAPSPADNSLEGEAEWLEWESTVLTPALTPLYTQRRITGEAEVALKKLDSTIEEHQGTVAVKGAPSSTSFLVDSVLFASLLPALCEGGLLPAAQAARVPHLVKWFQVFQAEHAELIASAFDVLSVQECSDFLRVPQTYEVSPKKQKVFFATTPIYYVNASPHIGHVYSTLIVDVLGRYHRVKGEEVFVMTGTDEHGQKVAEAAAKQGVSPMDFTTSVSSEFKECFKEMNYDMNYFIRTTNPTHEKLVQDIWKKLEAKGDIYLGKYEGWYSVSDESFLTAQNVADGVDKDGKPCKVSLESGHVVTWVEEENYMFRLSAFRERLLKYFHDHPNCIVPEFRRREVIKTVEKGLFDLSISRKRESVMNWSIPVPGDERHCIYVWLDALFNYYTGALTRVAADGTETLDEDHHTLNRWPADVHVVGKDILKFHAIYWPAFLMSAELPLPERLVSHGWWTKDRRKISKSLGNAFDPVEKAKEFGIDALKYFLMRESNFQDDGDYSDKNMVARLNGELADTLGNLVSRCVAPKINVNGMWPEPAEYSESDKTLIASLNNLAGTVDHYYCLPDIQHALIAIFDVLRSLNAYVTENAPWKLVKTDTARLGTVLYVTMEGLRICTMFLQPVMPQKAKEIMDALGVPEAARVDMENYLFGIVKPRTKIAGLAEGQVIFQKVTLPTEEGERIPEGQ

The values are deposited in ChEMBL (CHEMBL3988442, “University of Dundee, Small-Polar-MMV Screening Library” (2021)).

All values are in %. The record does not define 0% and 100%; most values in the screen are far below 50% and negative numbers occur (in some assays of this library far below -100). Compounds were drawn at random from those tested, without regard to their results. A dash means the value is not listed here; it may have been measured.

Mtb heat-shock: 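Assay on Mycobacterium tuberculosis, filed only as a heat shock assay from Cornell; the read-out is not stated. The concentration is filed as 10 mM, unlikely as a test dose, so the dose is not known. The record gives no direction; compounds that gave an IC50 in retests scored well above the rest, so higher reads as stronger inhibition. About 69,000 compounds were tested under these conditions; 1.4% (about 930) showed 50% or more at least once.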
LdMetRS: 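Primary screen of methionyl-tRNA synthetase; the read-out is not stated. Target: Methionyl-tRNA synthetase (putative), Leishmania donovani (UniProt E9BF75). The test concentration is not given. The values are filed as inhibition. Of about 68,000 compounds tested this way, about 24 (0.035%) reached 50% or more in at least one test.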
Mtb growth Cornell: 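Whole-cell assay for inhibitors of Mycobacterium tuberculosis growth, labelled Cornell in the record; the read-out is not stated. The concentration is filed as 10 mM, unlikely as a test dose, so the dose is not known. Higher means stronger inhibition (inferred from two other growth screens of the library). About 53,000 compounds were tested under these conditions; 1.7% (about 900) showed 50% or more at least once.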

Compound,Mtb heat-shock,LdMetRS,Mtb growth Cornell
O=C(O)C(F)(F)F.O=C(O)C(F)(F)F.O=C(O)C(F)(F)F.O=C1N(c2cccnc2)CCC12CCCN(Cc1cccnc1)C2 (stereo not drawn),-12.25,-,14.93
O=C1CC2(CCN(Cc3ccccn3)C2)CN1c1cncnc1 (stereo not drawn),-,13.13,-
COc1ncnc(N)c1CNCCc1ccc(-n2cccn2)cc1,-3.741,20.32,29.53
[H][C@@]12CCCO[C@]1([H])[C@H](N(C)Cc1cccnc1)CN2c1ncc(F)cn1,-21.33,-,19.63
O=C(O)C(F)(F)F.[H][C@]12CN(Cc3cccc(C)c3)C[C@@]1([H])S(=O)(=O)CC[C@@H]2C(=O)NCC(C)C,-34.52,-,-
CN(C)C(CNS(=O)(=O)c1cnn(C)c1)c1cccc(F)c1 (stereo not drawn),25.29,11.65,-
O=C([C@H]1C[C@H]2OCC[C@H]2N(Cc2ccco2)C1)N1CCCO1,-,8.795,-
O=C(O)C1CCCN1c1nc(-c2ccc(Cl)cc2)cc(C(F)(F)F)n1 (stereo not drawn),-12.57,-1.044,38.69
CN1CCN(S(=O)(=O)c2ccc(Cl)c(Cl)c2)c2cnccc21,-23.43,17.51,24.4
O=c1[nH]c(NC2CCCC2)nc2nccc(-c3ccsc3)c12,15.89,2.941,2.983
Cc1ccc(Cl)cc1NCc1nc2[nH]c(C)c(C)c(=O)n2n1,5.966,9.044,27.98
O=C(O)C(F)(F)F.O=S(=O)(c1cccs1)N1Cc2nc(CN3CCCCC3)oc2C1,1.226,-,4.543
CCc1cc(N(C)Cc2nonc2C)nc(N2CCOCC2)n1,18.1,9.059,-2.827
N#Cc1ccc(CN2CCCN(C(=O)CCn3cncn3)CC2)cc1,-11.18,16.19,-10.14
CNC(=O)Cc1noc(Cc2cccc(Cl)c2)n1,-2.548,4.359,15.47
Cn1cc2c(n1)C(CNC1CCOCC1)OCC2 (stereo not drawn),-,-12.78,-
O=C(O)[C@@H]1CN(C(=O)c2ccc3[nH]nnc3c2)C[C@H]1c1ccccc1,-5.405,-5.521,-23.67
NC(=O)COc1ccc(CNCc2ccc(F)cc2)cc1,-,11.61,-
CO[C@@H]1CN(S(=O)(=O)c2cn(C)cn2)[C@@H]2CCCO[C@@H]21,-,12.24,-
COCC(=O)N1CC(c2n[nH]cc2C)C1,1.667,6.383,7.766
O=C(c1cncc(Br)c1)N1CCC(O)(Cn2ccc3ccncc32)CC1,8.367,10.62,0.9783
Cc1nn(C)c(N2CCOCC2)c1CNC1CCc2cc(F)ccc21.Cl (stereo not drawn),12.29,-,15.82
COc1cc(CN2CCN(CC3CC3)[C@@H]3CS(=O)(=O)C[C@@H]32)cc(OC)c1,-,7.263,-
CCSc1ccccc1C(=O)N(CCOC)Cc1ccoc1,-23.21,11.26,-
COc1cccc(OC)c1-c1c[nH]c(C)n1,-13.97,17.18,0.07868
Cc1ccc(Nc2nccc(C3CCN(C(=O)CN)C3)n2)nc1 (stereo not drawn),-,-5.788,-
CC(C)(C)C(=O)N1CCN(CCOc2cccc(C#N)c2)CC1,11.06,13.54,-
COC[C@]1(O)CCN(Cc2c[nH]c(CC3CCCC3)n2)CC1(C)C,-12.53,-3.901,-23.42
O=C(NCCc1ccc(F)cc1)C1CN(C(=O)Cn2cncn2)C1,7.892,6.329,-2.618
O=C(c1ccoc1)N1CC[C@H]2[C@H]1CCN2CC1CC1,-,2.801,-
CC(C)(C)c1cnc(CNc2cccc(Cn3cnnc3)c2)o1,12.8,16.03,2.28
O=C(O)C(F)(F)F.O=C(O)C(F)(F)F.[H][C@]12CCC[C@@H](CNc3ncccn3)[C@@]1([H])CN(CCOC)C2,13.23,-,0.1226
CCc1ncncc1C(=O)NCCNc1ncnc2sccc12,-33.28,20.5,21.2
CCn1c(=O)n(CCC(=O)N(C)Cc2ccc(C)o2)c2ccccc21,-1.695,8.84,-
[H][C@@]12C[C@@H](c3nnc(C4CC4)o3)O[C@]1([H])CN(CC1CCOCC1)C2,-3.027,-,34.41
Cc1nn(C)c(C)c1NC(=O)CNC(c1ccccc1)C1CCCC1 (stereo not drawn),-6.232,11.65,-
Cc1nc(C)n(CC2CCCN2Cc2cn3ccsc3n2)n1 (stereo not drawn),52.44,0.6135,6.378
CCC(NC1CCN(S(C)(=O)=O)CC1)c1cccs1 (stereo not drawn),9.968,14.37,5.275
CN1C(=O)CO[C@H]2CN(C(=O)c3ccc4c(c3)CCCC4)C[C@@H]21,-,4.658,-
CCOc1ccc(CNC(=O)N(C)Cc2ncnn2C)cc1C,-9.906,13.49,13.71